Values from PubChem BioAssay AID652243 (Drosophila RNAi Screening Center, 2013).
Purpose: 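Fly genes required for human androgen receptor driven transcription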 (primary screen). System: Drosophila S2R+ cells. Reagent: long dsRNA against Drosophila genes. Timing: 72 h (48 h, then 24 h hormone). Challenge: synthetic androgen R1881 at 10 nM for 24 h. Detection: 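Per-well raw luminescence of the androgen-driven firefly reporter and of the Renilla control, two replicates each, without normalisation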. Reading the numbers: firefly reporter light: higher = more light from androgen-responsive reporter; Renilla control light: higher = more constitutive control signal (cell number, transfection). Call rule: 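Hit when the log firefly-to-Renilla ratio dropped or increased by a fixed fold versus the mean of GFP or LacZ controls across duplicate plates; lowering cut given as 1.5 and as 3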. Calls: active = hit: reporter lowered or raised; inactive = no hit.
In all, the deposit lists about 24,000 reagents; this is a random part of those with a known target gene and a result. Of all reagents, 246 (1%) got an active call. 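Plates not normalised; calls are printed but the firefly/Renilla ratio behind them is not deposited; fold cut for lowering reported inconsistently.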 Raw values vary from plate to plate and are shown uncorrected. The numbers tell different reagents against one gene apart. A plus sign joins genes that one reagent is predicted to hit. The record does not give: the amount of reagent.

no.	predicted target	reagent no.	firefly reporter light, replicate 1	firefly reporter light, replicate 2	Renilla control light, replicate 1	Renilla control light, replicate 2	Call
1	CG13243 (GeneID 34933)	1	1.08e5	1.44e5	1.41e6	1.69e6	inactive
2	Rab9D + Rab9E + Rab9Db + 1 more	1	2.14e5	2.83e5	7.68e5	7.52e5	inactive
3	gukh (GeneID 53563)	1	1.65e5	2.43e5	2.49e6	2.76e6	inactive
4	gukh (GeneID 53563)	2	2.11e5	2.30e5	2.56e6	2.46e6	inactive
5	gukh (GeneID 53563)	3	1.33e5	58624	6.12e5	6.02e5	inactive
6	mthl1 (GeneID 32637)	1	2.79e5	3.13e5	3.01e6	3.07e6	inactive
7	MstProx + Mst84Da	1	70875	66223	1.49e6	1.75e6	inactive
8	CG34232 (GeneID 5740195)	1	1.02e6	9.10e5	1.28e6	1.43e6	inactive
9	CG16772 (GeneID 35281)	1	1.48e5	1.84e5	2.03e6	2.42e6	inactive
10	CG16772 (GeneID 35281)	2	3.31e5	3.52e5	9.84e5	8.61e5	inactive
11	CG9514 (GeneID 32418)	1	4.56e5	5.65e5	2.97e6	3.27e6	inactive
12	CG9514 (GeneID 32418)	2	3.51e5	3.88e5	2.96e6	3.32e6	inactive
13	CG9514 (GeneID 32418)	3	1.05e6	7.75e5	1.11e6	1.00e6	inactive
14	bgcn (GeneID 47873)	1	3.27e5	3.57e5	2.16e6	1.67e6	inactive
15	bgcn (GeneID 47873)	2	2.87e5	3.48e5	1.73e6	1.65e6	inactive

3 consecutive reagents from above, quoted:
no.	predicted target	reagent no.	firefly reporter light, replicate 1	firefly reporter light, replicate 2	Renilla control light, replicate 1	Renilla control light, replicate 2	Call
7	MstProx + Mst84Da	1	70875	66223	1.49e6	1.75e6	inactive
8	CG34232 (GeneID 5740195)	1	1.02e6	9.10e5	1.28e6	1.43e6	inactive
9	CG16772 (GeneID 35281)	1	1.48e5	1.84e5	2.03e6	2.42e6	inactive

Additional results follow:
no.	predicted target	reagent no.	firefly reporter light, replicate 1	firefly reporter light, replicate 2	Renilla control light, replicate 1	Renilla control light, replicate 2	Call
16	CG5235 (GeneID 39758)	1	2.10e5	1.81e5	1.66e6	1.51e6	inactive
17	Clc (GeneID 40221)	1	23931	57618	3.07e5	5.00e5	inactive
18	Clc (GeneID 40221)	2	8.58e5	5.56e5	7.57e5	5.70e5	inactive
19	CG33510 (GeneID 3346224)	1	4.87e5	5.61e5	1.67e6	1.76e6	inactive
20	sens (GeneID 45328)	1	14244	18002	75249	89167	inactive
21	sens (GeneID 45328)	2	6.16e5	6.32e5	1.36e6	1.21e6	inactive
22	Jheh2 (GeneID 37181)	1	94712	1.22e5	1.72e6	1.52e6	inactive
23	Jheh2 (GeneID 37181)	2	5.06e5	4.16e5	4.79e5	4.65e5	inactive
24	galla-2 (GeneID 39221)	1	5.57e5	6.97e5	2.53e6	3.53e6	inactive
25	galla-2 (GeneID 39221)	2	7.91e5	6.40e5	1.46e6	1.34e6	inactive
